Consider 1 substance from US8580258.

Sequences of proteins named here, by UniProt entry; tags and fusion partners are left off. Residues count along the entry.
UniProt P32004, residues 20-1120: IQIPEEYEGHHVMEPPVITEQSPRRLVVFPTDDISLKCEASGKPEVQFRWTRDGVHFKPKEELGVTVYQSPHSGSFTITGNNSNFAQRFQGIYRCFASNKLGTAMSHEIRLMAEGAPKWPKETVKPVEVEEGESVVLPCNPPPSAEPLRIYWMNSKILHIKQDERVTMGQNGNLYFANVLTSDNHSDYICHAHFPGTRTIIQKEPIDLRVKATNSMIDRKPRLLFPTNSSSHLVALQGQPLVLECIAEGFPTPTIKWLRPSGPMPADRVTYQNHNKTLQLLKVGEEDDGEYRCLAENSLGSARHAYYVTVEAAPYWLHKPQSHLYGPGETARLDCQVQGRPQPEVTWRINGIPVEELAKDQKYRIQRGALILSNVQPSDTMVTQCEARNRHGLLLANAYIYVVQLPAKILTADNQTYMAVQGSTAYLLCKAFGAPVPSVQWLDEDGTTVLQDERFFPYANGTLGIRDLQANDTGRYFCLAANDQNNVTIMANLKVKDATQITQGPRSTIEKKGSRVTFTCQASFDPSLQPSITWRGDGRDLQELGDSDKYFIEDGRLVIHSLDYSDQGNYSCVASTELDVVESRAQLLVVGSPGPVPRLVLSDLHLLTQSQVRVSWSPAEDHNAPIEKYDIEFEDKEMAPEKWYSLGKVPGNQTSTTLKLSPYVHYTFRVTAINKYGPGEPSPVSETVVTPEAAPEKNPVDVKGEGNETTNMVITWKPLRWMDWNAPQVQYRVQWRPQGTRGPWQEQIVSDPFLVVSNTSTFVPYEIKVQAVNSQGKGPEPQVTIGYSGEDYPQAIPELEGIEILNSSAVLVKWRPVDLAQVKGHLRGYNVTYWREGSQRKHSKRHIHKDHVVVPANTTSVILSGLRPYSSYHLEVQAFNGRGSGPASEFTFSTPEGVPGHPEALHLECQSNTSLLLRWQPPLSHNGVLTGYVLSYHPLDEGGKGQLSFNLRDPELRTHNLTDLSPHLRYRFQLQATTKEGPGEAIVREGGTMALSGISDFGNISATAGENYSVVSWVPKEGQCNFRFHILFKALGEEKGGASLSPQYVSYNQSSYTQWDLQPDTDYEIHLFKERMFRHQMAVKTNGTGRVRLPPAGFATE

No constants are given. Whether binding was seen depends on the method and setting. Some results given as binding are weak or reduced against the parent protein; the word gives no strength.

This experiment concerns the target recombinant L1-Fc fusion protein (human L1-Fc protein comprising the ectodomain of L1) (human) (UniProt P32004). The experiment can be described thus: cell adhesion assay, J558-L1 cells on slides coated with L1-Fc (10 µg/ml), bound cells counted by bright field microscopy, mean ± SD.

Consider “L1 on J558-L1 cells (L1-transfected cells) (from UniProt P32004 20-1257) (receptor)”, for which the binding result was “binds”.
